Experimental data reported in patent US20080058421A1, “COMPOSITIONS FOR CLEANING AND DISINFECTING NASAL TRACT AND SINUS CAVITY” (priority 2006, published 2008).
At least one structure is not confirmed: it was looked up by name or label, or the drawing left a doubt. Marks after values point to notes of the source that are not given here.

Assays:
Experiment in all cases: modified A.O.A.C. germicidal and detergent sanitizer test
Type in all cases: cell-based
[1] = system: A. h. 7965 (Aeromonas hydrophila); settings: duplicate counts
Method: (§1) The efficacy of the sanitizers in Examples 1, 2 and 3 was further evaluated with […] as controls against Salmonella typhimurium, Listeria monocytogenes, Aeromonas hydrophila, and Pseudomonas aeruginosa essentially by the modified detergent and germicidal sanitizer test of the A.O.A.C. The sanitizers were tested against both natural isolates and the antibiotic resistant strains of Listeria monocytogenes and Salmonella typhimurium. Each of the antibiotic resistant strains was used separately as well as in a composite strain prepared by mixing equal numbers of five different antibiotic resistant strains of Listeria monocytogenes or those of Salmonella typhimurium, respectively.

[2] = system: L. m. 7644 (Listeria monocytogenes); settings: duplicate counts
Method: as §1

[3] = system: P. a. 10145 (Pseudomonas aeruginosa); settings: duplicate counts
Method: as §1

[4] = system: S. t. 7823 (Salmonella typhimurium); settings: 60 seconds contact; duplicate counts
Method: as §1

[5] = 30 seconds contact, HOCL = 200 ppm

## OCl [Hypochlorite]
[1]; [5]
  Number of surviving bacteria/ml after contact, cfu/ml: 1*, 0* cfu/ml
[1]; 60 seconds contact
  Number of surviving bacteria/ml after contact, cfu/ml: 0, 0 cfu/ml
[2]; [5]
  Number of surviving bacteria/ml after contact, cfu/ml: 82*, 60* cfu/ml
[2]; 60 seconds contact
  Number of surviving bacteria/ml after contact, cfu/ml: 17, 16 cfu/ml
[3]; 30 seconds contact
  Number of surviving bacteria/ml after contact, cfu/ml: 1, 2 cfu/ml
[3]; 60 seconds contact
  Number of surviving bacteria/ml after contact, cfu/ml: 1, 0 cfu/ml
[4]
  Number of surviving bacteria/ml after contact, cfu/ml: 86, 94 cfu/ml
